Test results as given in PubChem BioAssay AID590 (National Center for Advancing Translational Sciences (NCATS), 2007).
“And” between values parts separate entries of the source, which are not always exact repeats. Equal entries are not always repeated. About 6,500 (11%) of roughly 59,000 compounds were called active. Inconclusive means that the source gave no clear call. Such entries were picked first, then a sample of the others. Cut-off read from the data, not from the text of the source: active = max dye-equivalent concentration above about 10 nM; inconclusive = mostly about 1.1 nM to 9.6 nM; inactive = weaker than that. Where a structure was tested more than once in an assay, its records may differ in their call.

Assay: qHTS Assay for Spectroscopic Profiling in A350 Spectral Region
Conditions: Compound autofluorescence, 340/450 nm, Alexa 350 dye-equivalents; active compounds read high

SMILES	max dye-equivalent concentration	outcome
CCOCCCNC(=O)C1CCN(S(=O)(=O)N2CCCCC2)CC1	active: 1e-08 M	–
O=C(OCc1cc2ccccc2[nH]c1=O)c1ccccn1	inconclusive: 5.9e-09 M	–
Cc1cc(NC(=O)Cn2cnc3sc(C)c(-c4ccccc4)c3c2=O)no1	inactive	–
COC(=O)CCCc1nc2ccccc2s1	inconclusive: 3.9e-09 M	–
COc1ccc(C(=O)N2CCC3(CCN(CC(C)C)CC3)CC2)cc1	inactive	–
FC(F)(F)c1cc(NC(=S)N2c3ccccc3-n3cccc3[C@H]2c2cccnc2)cc(C(F)(F)F)c1	active: 1.6e-07 M	–
Cc1nnc2sc(-c3cccc4ccccc34)nn12	inconclusive: 8.2e-09 M	–
Cn1c(=O)[nH]c(=O)c2c1nc(Br)n2CCC(=O)c1ccccc1	inconclusive: 3.6e-09 M	–
CC(=NC(C)C)C1=C(O)CCC1=O	inactive	–
CN(CC(=O)NC1CCCCC1)S(=O)(=O)c1ccc(Cl)cc1	inactive	–
Cn1c(-c2ccc(CN3CCCCC3)o2)nc2ccccc21	active: 1.5e-08 M	–
c1ccc(CCN2CN=C(Nc3nc4ccccc4o3)NC2)cc1	inconclusive: 3.6e-09 M	–
CN(Cc1cc(Br)cc(Br)c1O)Cc1c(O)ccc2ccccc12	inconclusive: 4.2e-09 M	–
COc1ccc2nc(SCC(N)=O)cc(C)c2c1	inconclusive: 9.4e-09 M	–
O=S(=O)(Cc1ccccc1)N1CCc2ccccc21	inactive	–
O=C(CSc1nc2cc(Cl)ccc2s1)NC(=O)NCc1ccco1	inactive	–
CCOC(=O)C(Cc1ccccc1)NS(=O)(=O)c1ccc(NC(C)=O)cc1 (centres undefined)	inconclusive: 9.5e-09 M	–
COc1ccc2c(c1)c(CC(=O)O)c(C)n2C(=O)c1ccc(Cl)cc1	active: 2.2e-07 M	inactive
COc1ccccc1OCc1nnc(SCC(=O)N2CCCCC2)n1-c1ccccc1	inconclusive: 1.2e-09 M	–
COc1cccc(N(CC(=O)N2CCN(C)CC2)S(=O)(=O)c2ccccc2)c1	inconclusive: 2.5e-09 M	–
Oc1ccccc1C(=S)N1CCCCCC1	inactive	–
Nc1nc2ccc(OC(F)(F)F)cc2s1	inactive	–
Cc1ccc(-c2c3c(=O)n(C)c(=O)n(C)c3cn2-c2ccccc2O)cc1	inconclusive: 2e-09 M	–

SMILES	max dye-equivalent concentration	outcome
Oc1cc(O)c2c(c1)O[C@H](c1ccc(O)c(O)c1)[C@H](O)C2	active: 1.4e-08 M	inactive
Cc1noc(C)c1-c1nc(N2CCN(C)CC2)c2ccccc2n1	inactive	–
COc1ccc(C(=O)Cn2nnc(-c3ccccc3NC(=O)c3ccco3)n2)cc1	inconclusive: 5.5e-09 M	–
CCOC(=O)c1[nH]c2ccccc2c1N=C(C)N(CC)CC	inactive	–
COc1cc(-c2nc(S(=O)(=O)c3ccc(Cl)cc3)c(N(C)C)o2)cc(OC)c1OC	inactive	–
COc1ccc(C(=O)Nc2nc3ccccc3[nH]2)cc1OC	inactive	–
O=C1CC(C(=O)Nc2ncccn2)C(c2ccccc2)O1 (centres undefined)	inactive	–
CC1=N[C@@](C)(COC(=O)[C@]2(C)N[C@](C)(CO)CO2)COC1=O	inactive	–
CN(c1nc2ccccc2n2c(-c3ccco3)nnc12)S(=O)(=O)c1ccccc1	active: 3.9e-08 M	–
CCOC(=O)C(CC)Sc1ncnc2nc[nH]c12 (centres undefined)	inactive	–
O=C(Nc1ccc(NC(=O)C2CCCCC2)cn1)c1ccco1	inactive	–
CC(C)(C)n1ncc2c(=O)n(Cc3ccc(Cl)cc3Cl)cnc21	inactive	–
CCOC(=O)Nc1nc(C)c(C(=O)N(C)C)s1	inactive	–
CC(C)Cn1cc(C(=O)NCCCN2CCCC2=O)c2c3ccccc3n(C)c2c1=O	active: 4.7e-07 M	–
COC(=O)c1[nH]c2ccc(Br)cc2c1NC(=O)C(C)N1CCN(C2CCCCC2)CC1 (centres undefined)	inactive	–
C=CCn1c(SCC(=O)NCCCC)nc2scc(-c3ccco3)c2c1=O	inconclusive: 5.2e-09 M	–
CN1Cc2c(N3CCOCC3)nc(SCc3ccccc3)c(C#N)c2CC1(C)C	inconclusive: 4.9e-09 M	–
CN1CCN(c2ncnc3ccc(-c4ccc5c(c4)OCO5)cc23)CC1	inconclusive: 3.8e-09 M	–
O=c1[nH]c(NC2CCCCC2)nnc1Cc1ccccc1	active: 1.3e-08 M	–
CCCCC#Cc1nc(N)c2ncn([C@@H]3O[C@@H](C(=O)NCC)[C@H](O)[C@@H]3O)c2n1	inconclusive: 1.8e-09 M	–
CCOC(=O)c1c(C)oc2ccc(NS(=O)(=O)c3ccc4c5c(cccc35)C(=O)N4)cc12	inconclusive: 6.8e-09 M	–
COc1ccc(/C(O)=C2\C(=O)C(=O)N(CCN(C)C)C2c2cccc(OC)c2OC)cc1 (centres undefined)	inconclusive: 1.3e-09 M	–
Cc1cc(=O)n2c3c(cccc13)CCC2	inactive	–

One compound at a time (already shown). Values in the order: max dye-equivalent concentration	outcome
CCCCC#Cc1nc(N)c2ncn([C@@H]3O[C@@H](C(=O)NCC)[C@H](O)[C@@H]3O)c2n1 is entered as inconclusive: 1.8e-09 M	–
COC(=O)c1[nH]c2ccc(Br)cc2c1NC(=O)C(C)N1CCN(C2CCCCC2)CC1 (centres undefined) is entered as inactive	–
Cc1noc(C)c1-c1nc(N2CCN(C)CC2)c2ccccc2n1 is entered as inactive	–
Oc1cc(O)c2c(c1)O[C@H](c1ccc(O)c(O)c1)[C@H](O)C2 is entered as active: 1.4e-08 M	inactive

(further entries)

SMILES	max dye-equivalent concentration	outcome
CCOc1cc2[nH]c(=O)n(CCCCC(=O)N3CCCCCC3)c(=O)c2cc1OCC	inconclusive: 1.7e-09 M	–
Cn1c(=O)c(-c2cccs2)nc2cnc(OCc3ccccc3)nc21	active: 3.7e-08 M	–
COc1ccc(N2CCN(C(=O)c3ccc(-n4nc(C)cc4C)cc3)CC2)cc1	inconclusive: 2.6e-09 M	–
C=CCN(C(=O)CCC(=O)Nc1cc(C)on1)C(C(=O)NC(C)(C)C)c1cccc(OC)c1OC (centres undefined)	inconclusive: 4.4e-09 M	–
Clc1ccc(Cn2cc(Br)cn2)cc1Cl	inconclusive: 4.7e-09 M	–
CCCn1c(=O)c(C(=O)Nc2nnc(C)s2)c(O)c2ccccc21	inactive	–
CCN(CC)CCN1C(=O)C(O)=C(C(=O)c2cccs2)C1c1ccccn1 (centres undefined)	inconclusive: 2.5e-09 M	–
c1ccc(-c2nc3c4ccccc4nc(N4CCN(c5ccccn5)CC4)n3n2)cc1	inactive	–
O=C(COc1ccccc1)N(Cc1ccco1)C1CCS(=O)(=O)C1 (centres undefined)	active: 6.9e-08 M	–
CCOC(=O)c1cc2c(n(-c3ccc(C)cc3)c1=O)CCCC2=O	inconclusive: 4.1e-09 M	–
Cc1ccc(-c2ccc(CCC(=O)O)n2NC(=O)c2ccco2)cc1	active: 1.5e-08 M	–
COc1ccc(-c2cc(-c3ccccc3)n3ncnc3n2)cc1	active: 3.4e-07 M	–
COc1ccc(C2C3=C(CC(C)(C)CC3=O)Oc3ncn4nc(-c5cccnc5)nc4c32)cc1 (centres undefined)	inactive	–
COc1ccc2c(c1OC)C(=O)O[C@@H]2[C@H]1c2c(cc3c(c2OC)OCO3)CCN1C	inconclusive: 5.8e-09 M	–
COc1ccc(C2=NOC(C(=O)Nc3ccc(C(C)=O)cc3)C2)cc1OC (centres undefined)	active: 2.3e-07 M	–
Cc1cc2cc(CN(Cc3nnnn3C3CCCCC3)CC3CCCO3)c(=O)[nH]c2cc1C (centres undefined)	active: 1.1e-08 M	–
CSc1ccccc1C(=O)NCCSC(C)(C)C	inactive	–
CC1CCN(c2nc3c(c(=O)n(C)c(=O)n3C)n2CCSc2nc3ccccc3o2)CC1	active: 9.2e-08 M	–
COc1ccccc1-c1cc(N(C)Cc2ccco2)ncn1	inconclusive: 3.8e-09 M	–
CCCCS(=O)(=O)c1sc2nc3c(cc2c1N)CCCC3	active: 1.9e-08 M	–
Cn1c(=O)c(-c2cccc(Cl)c2)nc2cncnc21	inconclusive: 1.3e-09 M	–
Cc1c(NC(=O)CC2CC(C)OC2=O)c(=O)n(-c2ccccc2)n1C (centres undefined)	active: 1e-05 M	–
COc1ccc(NC(=O)N2CC[C@@]3(CCCN(C(=O)c4cc(C(F)(F)F)cc(C(F)(F)F)c4)C3)C2)cc1	inactive	–

SMILES	max dye-equivalent concentration	outcome
COCCN(C(C)=O)c1nnc(-c2ccccn2)s1	inactive	–
c1ccc2nc3c(nc2c1)[nH]c1ccccc13	inconclusive: 5.6e-09 M	–
O=C1Nc2ccccc2C1=Nc1ccc(S(=O)(=O)Nc2nccs2)cc1	inactive	–
CC1=C(C(=O)Nc2ccc(Cl)cc2)C(c2ccco2)NC(=O)N1 (centres undefined)	inactive	–
Cc1nc(NC2=NCN(Cc3cccnc3)CN2)nc2ccccc12	inconclusive: 2.3e-09 M	–
COc1ccc(-c2ccc(-c3noc(-c4ccco4)n3)c(OC)n2)cc1	active: 1.2e-07 M	–
c1ccc2c(NC3CC3)nc(-c3ccoc3)nc2c1	inactive	–
Cc1ccc(S(=O)(=O)C(C#N)c2nc3ccccc3nc2OC(C)C)cc1 (centres undefined)	inconclusive: 9.6e-09 M	–
c1ccc2oc(SCc3nc4ccccc4s3)nc2c1	inconclusive: 3e-09 M	–
NS(=O)(=O)c1cc(C(=O)O)cc(N2CCCC2)c1Oc1ccccc1	active: 3.2e-07 M	–
CCOC(=O)c1c(NC(=O)C(F)(OC)C(F)(F)F)sc2c1CCN(C)C2 (centres undefined)	active: 4.7e-08 M	–
CCn1nnc(-c2ccccc2NC(=O)c2cccc(-n3cnnn3)c2)n1	inconclusive: 2.4e-09 M	–
CC1(C)C2CCC1(CS(=O)(=O)N1CCCc3ccccc31)C(=O)C2 (centres undefined)	inconclusive: 1.2e-09 M	–
O=C(c1ccco1)N1CCN(C(=O)c2snc3ccc(Cl)cc23)CC1	inconclusive: 1.1e-09 M	–
CN(C)c1ccc(-c2nnn(Cc3ccccc3Br)n2)cc1	inactive	–
CN1CCN(c2ncnc3ccc(-c4ccoc4)cc23)CC1	inconclusive: 7.2e-09 M	–
CCCC(=O)NC(C)C(c1cccs1)N1CCN(c2ccccc2)CC1 (centres undefined)	inconclusive: 1.2e-09 M	–
CCOC(=O)CNC(=O)CSc1nc(C)cc(C)c1C#N	inconclusive: 2.2e-09 M	–
O=C(Cc1ccccc1)Nc1ccc2oc(-c3ccncc3)nc2c1	active: 1e-08 M	–
CCOC(=O)CC1=C(C(=O)OCC)C(c2ccc(OC)c(OC)c2)C(C#N)=C(N)O1 (centres undefined)	inconclusive: 4.9e-09 M	–
O=C(Nc1ccc2c(c1)OCCO2)C1CCN(c2cnccn2)CC1	active: 2.7e-08 M	–
Cc1cc(C(C)(C)C)c(O)c(C)c1CC1=NCCN1	inconclusive: 6.3e-09 M and inconclusive: 1.7e-09 M	–
COc1cc(C(O)P(=O)(OC(C)C)c2ccc(N(C)C)cc2)cc(OC)c1OC (centres undefined)	inconclusive: 1.6e-09 M	–
